This passage reports binding results from doi:10.1101/2025.09.22.677165.

Sequences of proteins named here, by UniProt entry; tags and fusion partners are left off.
UniProt P24864: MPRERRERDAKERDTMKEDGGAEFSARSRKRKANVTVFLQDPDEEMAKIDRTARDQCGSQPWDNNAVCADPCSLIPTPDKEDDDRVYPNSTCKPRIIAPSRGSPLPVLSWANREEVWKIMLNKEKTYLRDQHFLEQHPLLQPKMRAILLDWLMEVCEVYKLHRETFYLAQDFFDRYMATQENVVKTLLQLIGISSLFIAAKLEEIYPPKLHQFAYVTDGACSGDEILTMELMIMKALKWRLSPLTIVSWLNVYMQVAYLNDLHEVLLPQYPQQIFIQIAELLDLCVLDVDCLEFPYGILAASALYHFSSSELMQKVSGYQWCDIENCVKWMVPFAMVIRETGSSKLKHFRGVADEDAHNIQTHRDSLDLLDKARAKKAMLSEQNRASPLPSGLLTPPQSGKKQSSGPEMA
UniProt P17302: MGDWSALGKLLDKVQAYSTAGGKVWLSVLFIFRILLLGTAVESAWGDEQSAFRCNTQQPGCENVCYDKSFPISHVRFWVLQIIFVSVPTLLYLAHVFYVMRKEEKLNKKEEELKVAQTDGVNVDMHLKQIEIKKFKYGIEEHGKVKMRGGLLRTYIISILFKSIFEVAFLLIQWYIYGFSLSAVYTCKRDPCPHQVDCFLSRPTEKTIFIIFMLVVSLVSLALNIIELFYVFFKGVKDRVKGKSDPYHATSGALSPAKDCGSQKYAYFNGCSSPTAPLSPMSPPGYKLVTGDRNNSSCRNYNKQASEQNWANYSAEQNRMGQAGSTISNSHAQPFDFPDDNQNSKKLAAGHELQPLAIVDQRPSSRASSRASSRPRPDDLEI

These are yes or no findings as the source states them, for the method shown. For some of these results: In cells and extracts the contact can be indirect. Some results given as binding are weak or reduced against the parent protein; the word gives no strength.

The target of assay [1] is T1, Off-target (OT) peptide sequence (…, 15 a.a.) on the peptide array (mouse).
T1 sequence (peptide): AYFNGCSSPTAPLDP
Nature of the assay: peptide or protein array.

Assay [2] deals with T2, Peptide-1 sequence (…, 11 a.a.) on the peptide array (mouse).
T2 sequence (peptide): GVKDRVKGRSD
The assay can be described thus: peptide or protein array.

The target in assay [3] is T3, Peptide-2 sequence (…, 22 a.a.) on the peptide array (mouse).
T3 sequence (peptide): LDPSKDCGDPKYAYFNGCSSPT
Nature of the assay: peptide or protein array.

The target of assay [4] is cyclin E, endogenous in human coronary artery smooth muscle cells (human (endogenous in CASMC)) (UniProt P24864). The assay can be described thus: co-IP.

As for “Full-length cyclin E-GST protein (from UniProt P24864 1-410)”, the binding entry is “no binding (tested: 2.86 mg/mL cyclin E)” in assay [1], “binds” in assay [2] and “binds” in assay [3].

In the case of “connexin 43 (Cx43), endogenous in human coronary artery smooth muscle cells (from UniProt P17302 1-382)”, the binding result in assay [4] is given as “binds”.
